The values below come from article PMC9206729.

For at least one entry, the source does not settle the construct or the ends of the probe. No signal at the amounts used counts as a negative. Tags and fusion partners may be left off the protein sequences shown.

Data set [1] has as its target T1, His6-GlnR (Saccharopolyspora erythraea) (UniProt A4FQD5).
T1 sequence (looked up, limits assumed): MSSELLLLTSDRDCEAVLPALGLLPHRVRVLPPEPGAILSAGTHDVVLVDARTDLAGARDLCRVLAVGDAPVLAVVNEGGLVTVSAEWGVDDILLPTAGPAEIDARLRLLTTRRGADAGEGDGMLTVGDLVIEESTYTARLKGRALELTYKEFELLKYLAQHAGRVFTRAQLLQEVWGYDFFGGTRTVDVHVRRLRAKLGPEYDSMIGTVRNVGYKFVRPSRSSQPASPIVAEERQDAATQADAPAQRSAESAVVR
The experiment in a line: EMSA. The following applies: EMSA as in Xu et al. (binding buffer, pH and temperature not stated), 6% native PAGE, 0.5x TBE, ice bath, 120 V, recombinant protein, protein details: His6, label: 5'-biotin, probe letters rebuilt from the primers and the genome.

For data set [2], the system named is T2, His6-PhoP (Saccharopolyspora erythraea).
T2 sequence (looked up, limits assumed): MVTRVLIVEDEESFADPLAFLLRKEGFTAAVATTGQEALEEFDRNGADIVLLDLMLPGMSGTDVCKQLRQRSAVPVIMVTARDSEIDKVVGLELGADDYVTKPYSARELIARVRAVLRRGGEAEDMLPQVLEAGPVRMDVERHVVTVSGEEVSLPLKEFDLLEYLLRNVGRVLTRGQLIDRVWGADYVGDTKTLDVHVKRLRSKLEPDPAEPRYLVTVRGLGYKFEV
Nature of the data set: EMSA. The following applies: EMSA as in Xu et al. (binding buffer, pH and temperature not stated), 6% native PAGE, 0.5x TBE, ice bath, 120 V, recombinant protein, protein details: His6, label: 5'-biotin, probe letters rebuilt from the primers and the genome.

Setting [3] is: 0.2 and 0.4 uM protein, specific and non-specific competitor controls.

For the sequence “AGCCAGTGGCGATAAGAGACCGTGGACTTCGAGGATCTCAGCGAGTACCTGCCGGTGCACTACGGCCGGGTGCTGGAGGTGCTGGAGAGCCGCGAACAGGAGCTCTCCGACCGCATCGGCGAGGATTACCGGAACCGGATGAAGACCGGCCTGCGCAACTGGGTCGAAGCGGGCAACGCGGGCAACCTGGCGTGGGGGATCTTCCATGCGCAGTCTTGACAGTGACCGTCCGTACGCAAGGATCGAAGCCGAAACCGCTGTGAGGTGAGGATCAGCCGTGAGTGAGATCAACCGCAGGTTGTTCACGAGTGAGTCGGTGACCGAGGGTCACCCCGACAAGATGTGCGACGCGATCAGCGACTCCATCTTATCGCCACTGGCT (double strand) [SACE_3900 promoter probe]”, the binding result in data set [1] (setting [3]) and in data set [2] (setting [3]) was “binds” each time.

In the case of “AGCCAGTGGCGATAAGCCGCAAGGCCTGCGACCTGCTGGTCGTCAACGCCGTCGGCGAAGGCGGCGCCTTCGAGGGCGAGGACAACGGGGGCTGGCTGCTCGCCGCCGACGGCGCCGAGAGCCCGATCCGCCACGGCTCCAAGTCGCTGCTAGCGTCCACATTGTGGGATGCGGTGAGCCTGCGGCTGGGGCGACAGTAACCTCGAAGCCAAATCTTCAGAGCATTTCCCGCCGCACCGCACCGGCGGCGTAGTCTTCGAACCATCCAGGGAGAGTTGTGAGTCAGCAGCATGACCTGCGCGGAGCCGGCCGCAGGTTGTTCACCAGTGAGTCCGTGACCGAAGGGCACCCGGACAAGATCTGCGACGCGATCAGCCTTATCGCCACTGGCT (double strand) [SACE_2103 promoter probe]”, the binding result in data set [1] (up to 0.4 uM protein) and in data set [2] (up to 0.4 uM protein) was “no binding” in each case.
